# Results taken from paper doi:10.1101/2020.06.08.140590.
# Chains of the proteins cited; added tags and fusions are not shown.
# UniProt Q9UKV8: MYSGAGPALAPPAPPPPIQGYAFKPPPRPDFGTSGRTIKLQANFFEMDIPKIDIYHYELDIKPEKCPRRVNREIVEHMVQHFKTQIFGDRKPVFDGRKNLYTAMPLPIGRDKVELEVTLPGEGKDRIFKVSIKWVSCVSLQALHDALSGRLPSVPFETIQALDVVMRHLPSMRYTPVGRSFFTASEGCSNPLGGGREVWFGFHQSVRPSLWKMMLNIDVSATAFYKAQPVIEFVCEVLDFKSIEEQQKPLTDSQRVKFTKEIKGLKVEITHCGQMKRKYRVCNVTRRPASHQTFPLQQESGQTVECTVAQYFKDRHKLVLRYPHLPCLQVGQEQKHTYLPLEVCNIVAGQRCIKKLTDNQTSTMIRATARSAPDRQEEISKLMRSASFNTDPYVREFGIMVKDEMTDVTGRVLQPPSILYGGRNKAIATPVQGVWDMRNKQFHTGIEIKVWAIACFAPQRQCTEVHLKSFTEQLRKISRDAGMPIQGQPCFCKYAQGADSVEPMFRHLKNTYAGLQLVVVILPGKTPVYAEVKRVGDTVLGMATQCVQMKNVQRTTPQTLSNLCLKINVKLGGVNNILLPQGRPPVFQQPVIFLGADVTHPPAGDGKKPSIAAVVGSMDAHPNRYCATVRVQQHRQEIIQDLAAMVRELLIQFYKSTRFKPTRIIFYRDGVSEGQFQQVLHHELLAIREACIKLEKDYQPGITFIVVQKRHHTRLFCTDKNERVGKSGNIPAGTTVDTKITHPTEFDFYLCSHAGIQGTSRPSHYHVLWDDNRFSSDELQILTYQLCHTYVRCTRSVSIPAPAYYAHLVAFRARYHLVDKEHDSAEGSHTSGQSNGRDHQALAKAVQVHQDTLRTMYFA
# These are yes or no findings as the source states them, for the method shown. Binding seen in cells or lysates may run through a third protein. Some entries that bind do so weakly or less than the wild type.
# Legend:
# [1] = molecular target: HA-Ago1 (FLAG/HA-tagged Argonaute 1) (human) (UniProt Q9UL18); test: co-IP
# [2] = molecular target: HA-Ago2 (FLAG/HA-tagged Argonaute 2) (human) (UniProt Q9UKV8); test: co-IP
Substance,binding [1],binding [2]
"HSC70, endogenous (from UniProt P11142 1-646)",binds,binds
"HSPA1A (heat shock 70KDa protein 1A), endogenous (from UniProt P0DMV8 1-641)",binds,binds
